Assay results as given in the supplement of paper PMC12823440, “Inhibitors supercharge kinase turnover through native proteolytic circuits” (Nature, 2025).
Structures can show the parent of a compound that is named as a salt. This is one part of the list. The calls rarely recur for the same compound in another form.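 Kinases, fused to nanoluciferase, were expressed in K562 cells; luminescence was measured every 4 h from 2 to 18 h as percent of control (DMSO = 100%, positive control = 0%). A time point is decreased if signal falls significantly (2 sigma). Hits were called by the authors by a rule that is not shown; the count of time points alone does not decide it.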

By UniProt entry, the sequences of proteins in these tests, tags left out. Where a name states a change or a piece, a line headed by the entry shows the natural chain unless it says otherwise.
UniProt Q05397, whole entry, looked up: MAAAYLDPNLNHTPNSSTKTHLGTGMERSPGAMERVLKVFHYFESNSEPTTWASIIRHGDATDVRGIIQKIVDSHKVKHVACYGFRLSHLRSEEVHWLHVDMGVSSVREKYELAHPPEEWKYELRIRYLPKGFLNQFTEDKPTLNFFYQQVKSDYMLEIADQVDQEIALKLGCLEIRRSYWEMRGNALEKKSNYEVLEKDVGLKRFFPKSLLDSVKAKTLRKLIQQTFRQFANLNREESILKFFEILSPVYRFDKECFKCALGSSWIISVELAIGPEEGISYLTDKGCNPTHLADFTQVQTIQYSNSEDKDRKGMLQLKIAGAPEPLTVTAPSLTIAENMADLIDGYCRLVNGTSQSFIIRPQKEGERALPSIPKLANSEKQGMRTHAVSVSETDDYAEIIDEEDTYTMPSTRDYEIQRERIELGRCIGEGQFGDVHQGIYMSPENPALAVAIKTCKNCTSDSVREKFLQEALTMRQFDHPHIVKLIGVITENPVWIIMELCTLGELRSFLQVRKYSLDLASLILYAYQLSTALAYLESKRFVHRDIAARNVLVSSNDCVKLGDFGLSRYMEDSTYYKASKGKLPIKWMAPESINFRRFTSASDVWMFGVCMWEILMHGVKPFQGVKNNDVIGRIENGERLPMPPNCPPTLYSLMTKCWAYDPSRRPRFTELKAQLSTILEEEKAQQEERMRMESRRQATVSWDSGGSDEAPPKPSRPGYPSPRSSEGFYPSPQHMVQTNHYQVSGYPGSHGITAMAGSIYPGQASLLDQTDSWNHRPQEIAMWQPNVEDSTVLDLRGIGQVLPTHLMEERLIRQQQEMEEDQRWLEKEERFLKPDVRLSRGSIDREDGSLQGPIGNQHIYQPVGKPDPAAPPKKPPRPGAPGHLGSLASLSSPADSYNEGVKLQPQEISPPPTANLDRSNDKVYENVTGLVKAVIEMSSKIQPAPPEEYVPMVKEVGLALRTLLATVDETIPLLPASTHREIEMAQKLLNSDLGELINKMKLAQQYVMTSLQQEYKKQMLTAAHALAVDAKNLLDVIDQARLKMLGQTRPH
UniProt Q14289, whole entry, looked up: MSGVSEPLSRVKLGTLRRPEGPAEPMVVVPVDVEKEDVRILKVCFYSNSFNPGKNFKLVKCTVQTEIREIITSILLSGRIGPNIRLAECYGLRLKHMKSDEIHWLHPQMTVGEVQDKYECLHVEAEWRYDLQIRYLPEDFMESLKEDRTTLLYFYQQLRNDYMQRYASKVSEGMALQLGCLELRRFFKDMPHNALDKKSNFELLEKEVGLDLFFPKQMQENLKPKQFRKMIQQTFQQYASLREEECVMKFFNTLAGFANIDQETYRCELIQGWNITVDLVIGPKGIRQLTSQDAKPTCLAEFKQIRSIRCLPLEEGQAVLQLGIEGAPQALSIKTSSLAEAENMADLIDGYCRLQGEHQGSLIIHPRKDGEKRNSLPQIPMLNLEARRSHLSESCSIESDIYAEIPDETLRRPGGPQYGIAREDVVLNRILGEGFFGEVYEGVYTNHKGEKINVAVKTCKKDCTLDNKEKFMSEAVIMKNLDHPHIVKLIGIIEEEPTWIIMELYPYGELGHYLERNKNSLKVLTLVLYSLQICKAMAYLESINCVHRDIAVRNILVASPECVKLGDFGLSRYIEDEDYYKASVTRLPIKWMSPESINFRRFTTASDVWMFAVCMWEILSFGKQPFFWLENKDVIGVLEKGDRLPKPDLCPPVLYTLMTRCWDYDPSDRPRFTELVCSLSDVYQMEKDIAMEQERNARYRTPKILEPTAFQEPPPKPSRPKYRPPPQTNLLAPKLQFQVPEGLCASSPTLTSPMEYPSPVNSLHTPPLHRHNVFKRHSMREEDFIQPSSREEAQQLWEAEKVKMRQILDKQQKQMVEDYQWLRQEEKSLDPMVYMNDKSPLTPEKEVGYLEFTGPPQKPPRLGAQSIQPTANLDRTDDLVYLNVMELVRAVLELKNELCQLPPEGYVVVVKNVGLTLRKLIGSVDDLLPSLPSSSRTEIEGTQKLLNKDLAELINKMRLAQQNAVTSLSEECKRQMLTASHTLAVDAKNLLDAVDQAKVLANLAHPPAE
UniProt P07949, whole entry, looked up: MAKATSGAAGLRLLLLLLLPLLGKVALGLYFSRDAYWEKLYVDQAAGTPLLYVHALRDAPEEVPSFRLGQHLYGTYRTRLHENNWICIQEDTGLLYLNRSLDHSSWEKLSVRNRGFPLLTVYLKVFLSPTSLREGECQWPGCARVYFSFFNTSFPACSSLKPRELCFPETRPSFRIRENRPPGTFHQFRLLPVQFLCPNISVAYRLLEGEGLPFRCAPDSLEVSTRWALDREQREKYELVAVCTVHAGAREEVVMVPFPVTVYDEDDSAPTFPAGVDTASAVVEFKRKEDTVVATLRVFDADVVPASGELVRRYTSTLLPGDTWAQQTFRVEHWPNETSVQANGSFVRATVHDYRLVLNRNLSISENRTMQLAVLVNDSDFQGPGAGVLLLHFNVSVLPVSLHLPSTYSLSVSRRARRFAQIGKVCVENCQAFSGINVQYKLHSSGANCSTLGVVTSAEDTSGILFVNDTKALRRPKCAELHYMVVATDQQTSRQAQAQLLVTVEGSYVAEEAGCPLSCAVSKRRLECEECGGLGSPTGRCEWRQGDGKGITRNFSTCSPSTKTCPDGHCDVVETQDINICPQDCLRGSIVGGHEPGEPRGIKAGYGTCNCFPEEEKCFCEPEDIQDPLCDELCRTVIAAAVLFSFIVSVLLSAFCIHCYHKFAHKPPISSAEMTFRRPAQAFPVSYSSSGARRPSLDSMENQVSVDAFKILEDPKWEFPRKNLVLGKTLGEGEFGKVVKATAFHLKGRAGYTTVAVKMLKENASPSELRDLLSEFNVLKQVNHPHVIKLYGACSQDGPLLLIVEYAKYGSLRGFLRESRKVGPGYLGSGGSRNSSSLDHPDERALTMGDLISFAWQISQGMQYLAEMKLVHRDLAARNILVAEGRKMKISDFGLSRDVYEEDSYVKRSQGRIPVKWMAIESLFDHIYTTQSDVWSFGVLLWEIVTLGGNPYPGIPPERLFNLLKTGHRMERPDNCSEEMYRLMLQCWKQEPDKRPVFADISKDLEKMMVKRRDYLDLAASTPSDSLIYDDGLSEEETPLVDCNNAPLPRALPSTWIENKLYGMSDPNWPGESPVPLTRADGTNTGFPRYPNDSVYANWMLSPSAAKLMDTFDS
UniProt P07949, whole entry M918T, looked up: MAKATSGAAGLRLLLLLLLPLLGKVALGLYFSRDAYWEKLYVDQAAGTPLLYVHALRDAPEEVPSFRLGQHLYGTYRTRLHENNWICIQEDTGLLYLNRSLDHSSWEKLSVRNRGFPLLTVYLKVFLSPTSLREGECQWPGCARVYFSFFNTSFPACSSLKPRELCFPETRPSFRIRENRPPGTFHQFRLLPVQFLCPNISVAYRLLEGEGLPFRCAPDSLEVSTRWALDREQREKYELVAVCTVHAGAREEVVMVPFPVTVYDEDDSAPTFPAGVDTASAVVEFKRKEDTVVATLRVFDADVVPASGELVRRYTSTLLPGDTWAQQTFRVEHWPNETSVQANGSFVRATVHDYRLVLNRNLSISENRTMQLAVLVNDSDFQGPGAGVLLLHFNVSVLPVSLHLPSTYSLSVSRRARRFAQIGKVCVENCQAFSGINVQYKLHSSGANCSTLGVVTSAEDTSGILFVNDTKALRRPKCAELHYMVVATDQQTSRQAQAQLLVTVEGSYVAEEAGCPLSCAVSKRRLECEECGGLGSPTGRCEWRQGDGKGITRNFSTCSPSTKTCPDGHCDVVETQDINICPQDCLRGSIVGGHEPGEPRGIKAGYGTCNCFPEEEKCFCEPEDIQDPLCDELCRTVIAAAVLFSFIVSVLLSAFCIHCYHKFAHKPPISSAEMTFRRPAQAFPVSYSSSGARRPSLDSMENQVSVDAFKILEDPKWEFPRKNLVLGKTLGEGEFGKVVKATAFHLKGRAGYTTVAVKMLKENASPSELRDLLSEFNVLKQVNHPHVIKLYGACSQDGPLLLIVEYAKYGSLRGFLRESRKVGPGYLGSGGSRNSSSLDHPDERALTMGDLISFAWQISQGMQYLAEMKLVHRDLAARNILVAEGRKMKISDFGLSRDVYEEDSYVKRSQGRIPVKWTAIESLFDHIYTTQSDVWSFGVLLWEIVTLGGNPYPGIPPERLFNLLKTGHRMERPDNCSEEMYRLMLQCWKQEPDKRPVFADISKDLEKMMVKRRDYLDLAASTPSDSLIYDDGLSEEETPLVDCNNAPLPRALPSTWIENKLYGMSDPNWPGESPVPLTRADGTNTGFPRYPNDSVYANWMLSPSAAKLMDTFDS
UniProt Q9BRS2: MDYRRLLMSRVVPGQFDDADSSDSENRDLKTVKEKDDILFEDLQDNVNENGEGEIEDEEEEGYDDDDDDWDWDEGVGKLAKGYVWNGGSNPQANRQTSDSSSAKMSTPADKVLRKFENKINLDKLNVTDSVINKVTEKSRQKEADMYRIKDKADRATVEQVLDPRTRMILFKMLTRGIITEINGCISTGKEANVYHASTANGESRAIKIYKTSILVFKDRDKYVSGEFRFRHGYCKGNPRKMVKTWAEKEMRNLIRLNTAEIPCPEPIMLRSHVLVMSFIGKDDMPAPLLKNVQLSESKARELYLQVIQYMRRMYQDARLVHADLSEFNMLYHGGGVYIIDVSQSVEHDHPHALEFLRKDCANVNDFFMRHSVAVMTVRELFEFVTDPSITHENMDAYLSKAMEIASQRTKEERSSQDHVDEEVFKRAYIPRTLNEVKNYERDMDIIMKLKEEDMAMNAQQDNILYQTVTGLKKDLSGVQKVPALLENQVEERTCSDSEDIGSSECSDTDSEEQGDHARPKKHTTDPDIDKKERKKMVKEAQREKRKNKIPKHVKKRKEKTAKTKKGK
UniProt Q13546: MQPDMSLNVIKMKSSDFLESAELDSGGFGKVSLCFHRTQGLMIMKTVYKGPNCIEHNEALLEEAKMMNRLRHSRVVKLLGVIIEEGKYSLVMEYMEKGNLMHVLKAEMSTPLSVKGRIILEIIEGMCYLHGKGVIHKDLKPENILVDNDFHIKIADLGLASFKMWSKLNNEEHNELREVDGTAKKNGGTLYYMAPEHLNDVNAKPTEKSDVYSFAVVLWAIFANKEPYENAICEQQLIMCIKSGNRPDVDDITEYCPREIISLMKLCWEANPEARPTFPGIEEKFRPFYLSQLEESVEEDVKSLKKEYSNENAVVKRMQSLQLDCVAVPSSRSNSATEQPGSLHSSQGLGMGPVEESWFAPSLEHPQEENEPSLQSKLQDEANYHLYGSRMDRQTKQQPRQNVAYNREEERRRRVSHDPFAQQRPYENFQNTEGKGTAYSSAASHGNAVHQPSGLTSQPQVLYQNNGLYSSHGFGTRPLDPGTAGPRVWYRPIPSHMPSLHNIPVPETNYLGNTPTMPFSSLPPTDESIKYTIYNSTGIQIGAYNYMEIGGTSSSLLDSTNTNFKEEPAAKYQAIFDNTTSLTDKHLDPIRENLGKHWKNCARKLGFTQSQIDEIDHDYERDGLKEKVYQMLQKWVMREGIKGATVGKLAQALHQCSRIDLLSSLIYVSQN

Experiments:
Assay in all cases: number of time points (of 5) at which kinase-Nluc abundance scored as decreased, DMSO-normalised (count); higher = more persistent destabilization
Settings in all cases: K562; 2-18 h
[1] = biological target: PRKCA (UniProt P17252)
[2] = biological target: PTK2 (UniProt Q05397)
[3] = biological target: PTK2B (UniProt Q14289)
[4] = biological target: RAF1 (UniProt P04049)
[5] = biological target: RAF1_S257L (clone: RAF1_mut) (UniProt P04049)
[6] = biological target: RET (UniProt P07949)
[7] = biological target: RET_M918T (clone: RET_mut) (UniProt P07949)
[8] = biological target: RIOK1 (UniProt Q9BRS2)
[9] = biological target: RIPK1 (UniProt Q13546)
[10] = biological target: RIPK2 (UniProt O43353)

Measured: number of time points

O=c1cc(CN2CCOCC2)occ1OCCCCCSc1ccnc2cc(C(F)(F)F)ccc12 (10 µM)
0: all assays above

Cc1cc(Nc2ncnc3ccc(NC4=NC(C)(C)CO4)cc23)ccc1Oc1ccn2ncnc2c1 [Tucatinib (hemiethanolate)] (2.5 µM)
0: all assays above

COc1cc2ncnc(Nc3ccc(Cl)cc3F)c2cc1OC (10 µM)
0: all assays above

NCCNS(=O)(=O)c1cccc2c(Cl)cccc12 [A-3 (hydrochloride)] (10 µM)
0: all assays above

C=CC(=O)Nc1cc(Nc2ncc(Cl)c(-c3c[nH]c4ccccc34)n2)c(OC)cc1N(C)CCN(C)C [Mutant EGFR inhibitor] (2.5 µM)
3: [5]
2: [2] | [4] | [8]
1: [9]
0: all other assays above

Nc1nc(F)nc2c1ncn2[C@@H]1O[C@H](CO)[C@@H](O)[C@@H]1O [Fludarabine] (10 µM)
0: all assays above

O=C(CSC1=NCCN1)NC1CCCCCC1 [ICCB-19 (hydrochloride)] (2.5 µM)
2: [4]
0: all other assays above

CN1C(=O)N[C@H](Cc2c[nH]c3c(Cl)cccc23)C1=O [Necrostatin 2] (10 µM)
0: all assays above

O=C([O-])c1cc2ccccc2c(Cc2c(O)c(C(=O)[O-])cc3ccccc23)c1O.[Na+].[Na+] [Pamoic acid (disodium)] (10 µM)
0: all assays above

CCN1CCN(Cc2ccc(Nc3ncc(F)c(-c4cc(F)c5nc(C)n(C(C)C)c5c4)n3)nc2)CC1 [Abemaciclib] (2 µM)
0: all assays above

O=C(NCCN1CCOCC1)c1cc2c(Oc3ccc(NC(=O)C4(C(=O)Nc5ccc(F)cc5)CC4)cc3)ccnc2[nH]1 [Tyrosine kinase inhibitor] (10 µM)
0: all assays above

Cc1[nH]c(/C=C2\C(=O)Nc3ccccc32)c(C)c1CCC(=O)O [Orantinib] (10 µM)
0: all assays above

COc1ccc(OC)c(C2C(C#N)=C(N)Oc3n[nH]c(-c4ccc5ccccc5c4)c32)c1 (stereo not given) (10 µM)
0: all assays above

COc1cc(Nc2ncc(F)c(Nc3ccc4c(n3)N(COP(=O)(O)O)C(=O)C(C)(C)O4)n2)cc(OC)c1OC [Fostamatinib (disodium hexahydrate)] (10 µM)
0: all assays above

Cc1[nH]c(/C=C2\C(=O)Nc3ccccc32)c(C)c1CCC(=O)O [(Z)-Orantinib] (10 µM)
0: all assays above

Cc1ccc(C(=O)Nc2ccc(Oc3cc4cnn(C)c4cc3-c3cn[nH]c3)c(F)c2)c(=O)n1-c1ccc(F)cc1 [Merestinib dihydrochloride] (2.5 µM)
0: all assays above

Cn1cnc2c(F)c(Nc3ccc(Br)cc3Cl)c(C(=O)NOCCO)cc21 [Selumetinib] (10 µM)
0: all assays above

CN(C)C(=O)Cn1cc(-c2ccc(-c3cncc4ccccc34)cc2)cn1 (10 µM)
0: all assays above

C=CC(=O)Nc1cccc(Nc2nc(Nc3ccc(N4CCN(C(C)=O)CC4)cc3OC)ncc2C(F)(F)F)c1 [Rociletinib] (10 µM)
3: [4] | [8]
2: [2] | [5] | [9]
0: all other assays above

C[C@@H]1CC[C@@H](Nc2nc(NC(C)(C)C)ncc2C(N)=O)C[C@H]1O (10 µM)
0: all assays above

CC1=C(C(=O)O)N2C(=O)[C@@H](NC(=O)[C@H](N)C3=CCC=CC3)[C@H]2SC1 [Cephradine] (10 µM)
0: all assays above

CN(C)CCCOc1ccc(-c2ccc3ncc4c(c3c2)n(C2CCOCC2)c(=O)n4C)cn1 (2 µM)
0: all assays above

CC1(C)C(O[C@@H]2OC[C@@H](O)[C@H](O)[C@H]2O)CC[C@]23CC24CC[C@]2(C)[C@@H]([C@@]5(C)CC[C@@H](C(C)(C)O)O5)[C@H](O)C[C@@]2(C)C4C[C@@H](O[C@@H]2O[C@H](CO)[C@@H](O)[C@H](O)[C@H]2O)C13 (stereo not given in full) [Astragaloside IV] (10 µM)
0: all assays above

CCS(=O)(=O)Nc1ccc2[nH]c(O)c(C(=Nc3ccc(CN4CCCCC4)cc3)c3ccccc3)c2c1 [Hesperadin] (2.5 µM)
2: [2] | [6] | [8]
0: [1] | [3]
4: [5]
3: all other assays above

Cc1ccccc1-n1c([C@H](C)Nc2nc(N)nc3nc[nH]c23)nc2cccc(C)c2c1=O [CAL-130 (Hydrochloride)] (10 µM)
0: all assays above

Cc1cccc(Oc2cnc(=O)[nH]c2)c1 [Tolimidone] (10 µM)
0: all assays above

CCc1cc2c(cc1N1CCC(N3CCOCC3)CC1)C(C)(C)c1[nH]c3cc(C#N)ccc3c1C2=O [Alectinib (Hydrochloride)] (2 µM)
0: all assays above

COCCNc1nc2ccc(C#CC3(O)CCCCC3)cc2n1-c1ccnc(N)n1 (10 µM)
0: all assays above

Oc1cc2c(cc1O)C(Cc1cccc3ccccc13)NCC2 (stereo not given) (10 µM)
0: all assays above

Cn1nccc1Nc1nccc(-c2ccn([C@H](CO)c3ccc(Cl)c(F)c3)c(=O)c2)n1 [Ravoxertinib] (10 µM)
0: all assays above

O=C1N[C@@H](Cc2c[nH]c3ccccc23)C(=O)N2CCC[C@@H]12 [Brevianamide F] (10 µM)
0: all assays above

CN1CCN(c2cnc3c(C4CCN(C(=O)c5ccc(OC(F)(F)F)cc5N)CC4)ncnc3c2)CC1 (10 µM)
0: all assays above

Cc1nc2sccn2c(=O)c1CCN1CCC(=C(c2ccccc2)c2ccc(F)cc2)CC1 (10 µM)
1: [1]
0: all other assays above

OCCn1cc(-c2ccc3c(c2)CC/C3=N\O)c(-c2ccncc2)n1 (10 µM)
0: all assays above

COc1ncc(Cl)cc1S(=O)(=O)Nc1ccc(F)c(C#Cc2cnc(N)nc2)c1F (2.5 µM)
2: [2]
0: all other assays above

Cn1ncc(Cl)c1-c1cc(C(=O)N[C@H](CN)Cc2ccc(F)c(F)c2)oc1Cl [Uprosertib] (10 µM)
0: all assays above

C=CC(=O)Nc1ccc(CN2C(=O)N(c3cc(OC)cc(OC)c3)Cc3cnc(Nc4ccc(N5CCN(C)CC5)cc4)nc32)cc1 (2.5 µM)
0: all assays above

O=S(=O)(NCCCN1c2ccccc2CCc2ccc(Cl)cc21)c1ccc(OC(F)(F)F)cc1 (2.5 µM)
0: all assays above

CC#CC(=O)N1CC[C@@H](n2c(=O)n(-c3ccc(Oc4ccccc4)cc3)c3c(N)ncnc32)C1 [Tirabrutinib] (10 µM)
0: all assays above

CN1CCC(c2cc(-c3ccncc3)c(-c3ccc(F)cc3)[nH]2)CC1 (10 µM)
0: all assays above

O=Nc1c(-c2c(O)[nH]c3ccc(I)cc23)[nH]c2ccccc12 [5-Iodo-indirubin-3'-monoxime] (10 µM)
0: all assays above

Looked up one by one from the list above (two):
O=S(=O)(NCCCN1c2ccccc2CCc2ccc(Cl)cc21)c1ccc(OC(F)(F)F)cc1 (2.5 µM)
0: all assays above

CC#CC(=O)N1CC[C@@H](n2c(=O)n(-c3ccc(Oc4ccccc4)cc3)c3c(N)ncnc32)C1 [Tirabrutinib] (10 µM)
0: all assays above

(listing goes on)

Nc1ncnc2c1c(-c1cccc(OCc3ccccc3)c1)cn2C1CC(CN2CCC2)C1 (stereo not given) (2.5 µM)
0: all assays above

CN(CC(=O)N(Cc1ccc(C2CCCCC2)cc1)c1ccc(C(=O)NO)cc1)S(=O)(=O)c1c(F)c(F)c(F)c(F)c1F (2.5 µM)
0: all assays above

CS(=O)(=O)Nc1cc(-c2ccc3ncnc(Nc4ccc(F)c(Cl)c4)c3c2)cnc1Cl (2.5 µM)
1: [2]
3: [4]
0: all other assays above

Cc1ccccc1-c1c2nccc(-c3ccc(F)cc3F)c2cc[n+]1[O-] (10 µM)
0: all assays above

Cc1cc(CN2CCN(c3c(Br)cnc4nc(-c5ccc(N6CCN(C)CC6)cc5)[nH]c34)CC2)no1 (2.5 µM)
1: [1]
0: all other assays above

Nc1nc2ccc(Cl)cc2c2nc(-c3ccco3)nn12 (10 µM)
0: all assays above

CCOC(=O)N1CCN(C(=O)[C@H](Cc2cccc(C(=N)N)c2)NS(=O)(=O)c2c(C(C)C)cc(C(C)C)cc2C(C)C)CC1 (10 µM)
0: all assays above

Cc1cc(=O)oc2c(C=O)c(O)ccc12 (10 µM)
0: all assays above

c1cc(-c2c[nH]c3nccc(N4CCC[C@@]5(CCCCN5)C4)c23)ncn1 (10 µM)
1: [3]
0: all other assays above

CNC(=O)c1cc(COc2nnc(Nc3ccc(Cl)cc3)c3ccoc23)ccn1 [Telatinib] (10 µM)
5: [2]
0: all other assays above

CCN1CCC(n2cc(CNc3cc(Cl)c4ncc(C#N)c(Nc5ccc(F)c(Cl)c5)c4c3)nn2)CC1 [Cot inhibitor-2] (2.5 µM)
0: all assays above

O=Nc1c(-c2c(O)[nH]c3ccc(F)cc23)[nH]c2ccccc12 [5'-Fluoroindirubinoxime] (10 µM)
5: [6] | [7]
0: all other assays above

Cc1ccc(OCCSc2ncccn2)c(Br)c1 [ZLN024 (hydrochloride)] (10 µM)
0: all assays above

CNc1nc(Nc2ccc(C(=O)N3CCOCC3)cc2OC)nc2[nH]cc(Cl)c12 (2.5 µM)
0: all assays above

CC#CC(=O)Nc1ccc2ncnc(Nc3cccc(Br)c3)c2c1 (10 µM)
1: [2]
2: [6] | [7]
0: all other assays above

O=C1Nc2ccc(C(=O)c3ccco3)cc2C1=Cc1cc(Cl)c(O)c(Cl)c1 (2.5 µM)
5: [1]
0: all other assays above

NC(=O)c1ccc(-c2nc(-c3ccc4c(c3)OCCO4)c(-c3ccccn3)[nH]2)cc1 (10 µM)
0: all assays above

CC(C)(C)c1nc(-c2cccc(NS(=O)(=O)c3c(F)cccc3F)c2F)c(-c2ccnc(N)n2)s1 [Dabrafenib] (2.5 µM)
1: [5]
0: all other assays above

Cc1ccc(CNc2ncnc3ccc(-c4ccc(CO)o4)cc23)o1 (10 µM)
0: all assays above

FC(F)(c1ccc2ncccc2c1)c1nnc2ccc(-c3ccncc3)nn12 (10 µM)
0: all assays above

Cc1ccc(C(=O)Nc2ccc(Oc3cc4cnn(C)c4cc3-c3cn[nH]c3)c(F)c2)c(=O)n1-c1ccc(F)cc1 [Merestinib] (2.5 µM)
0: all assays above

C=CC(=O)Nc1cccc(Nc2nc(Nc3ccc(N4CCN(C(C)=O)CC4)cc3OC)ncc2C(F)(F)F)c1 [Rociletinib hydrobromide] (10 µM)
3: [5]
0: all other assays above

CCS(=O)(=O)c1ncc(Cl)c(C(=O)N(Cc2ccc(Cl)cc2)Cc2ccco2)n1 (2.5 µM)
2: [8]
0: all other assays above

CCCCCCCCCCCCC/C=C/[C@@H](O)[C@@H](N)CO [D-erythro-Sphingosine] (2.5 µM)
0: all assays above

CC(C)(O)CNc1ncc(-c2ccnc(Nc3ccnc(Cl)c3)n2)c(CC2CC2)n1 (2.5 µM)
0: all assays above

COc1cccc(OC)c1C(=O)OCc1cc(O)ccc1O[C@@H]1O[C@H](CO)[C@@H](O)[C@H](O)[C@H]1O [Curculigoside] (10 µM)
0: all assays above

Nc1ccc(-c2cnc(N)c(-c3ccc(Cl)cc3)c2)cn1 (10 µM)
0: all assays above

CC(C)(C)c1cc(O)ccc1O (10 µM)
0: all assays above

CN1CCN(c2cccc(Nc3nc4c(-c5ccc(S(C)(=O)=O)cc5)cccn4n3)c2)CC1 (10 µM)
0: all assays above

O=C(Nc1ccc(CN2CCOCC2)cc1)c1ccc(-c2cccc(Cl)c2)o1 (10 µM)
0: all assays above

COc1cc2c(cc1OC)CN(S(=O)(=O)c1ccc(OC)c(N3CCN(C(=O)c4ccc(F)cc4C(F)(F)F)CC3)c1)CC2 (10 µM)
0: all assays above

O=C(Nc1cn[nH]c1-c1ccccn1)c1nn(C2CCNCC2)cc1Cl (10 µM)
1: [2]
0: all other assays above
